1 molecule from patent US20030064954A1, “Cationic amphiphilic 1,4-dihydropyridine derivatives useful for delivery of nucleotide containing compounds” (priority 2000, published 2003) can be followed below.

Molecules are shown by their SMILES.

This experiment concerns CV-1P (African monkey green kidney fibroblasts cells). Description: In vitro transfection of plasmid DNA, β-galactosidase activity per well. It counts as cell-based. To be noted: CVI-P. As for the experimental part:
Transfer of plasmid DNA by various compounds was investigated by using CV-1P (African monkey green kidney fibroblasts cells) and D407 (human retinal pigment epithelial) cells.
The cells were cultured in Dulbecco's modified Eagle's medium (DMEM, Gibco), supplemented with 10% fetal bovine serum (FBS), penicillin/streptomycin (100 units/ml and 100 μg/ml respectively) and 2 mM L-glutamine for D 407 cell line. Cell cultures were maintained at 37° C. in a 7% CO2/air incubator. The cells were collected, counted and seeded in growth medium (100 μl) into 96-well culture plate, 20 000 cells per well. One day later the medium was replaced with fresh medium without serum (150 μl)
In the case of confluent CV1-P cells the medium (with of without serum) was changed on fourth day of cell growth before the transfection.
The complexes at different derivative/DNA charge ratios for transfection procedure were prepared just before use in 50 mM MES—50 mM HEPES—75 mM NaCl buffer, pH 7.2 in separate 96 well plates. One hour after changing the serum-free medium with 10% serum the complexes were added to the cells at […]. Dose of DNA per well was 0.6 μg. After 5 h the complexes were removed, the cells were washed with PBS, and the normal growth medium was added. After 45 h of incubation at 37° C. the cells were lysed with 2% Triton X 100, twice deep frozen and the β-galactosidase activity in each well was determined spectrofotometrically with ELx800 automated microplate reader (Bio-Tex Instruments Inc., Winooski, Vt. USA) by monitoring the hydrolysis of o-nitrophenylgalactopyranoside (oNPG) at 405 nm. Purified β-galactosidase from E.coli was used to construct a standard curve and to calculate […] activity in the transfected cells. The results are summarized in Table 3 and FIG. 4 in which the efficiencies of transfection of CVI-P cells (FIG. 4A) and D407 cells (FIG. 4B) using compound XXIII and DOTAP are shown. Transfection efficiencies are given as percentage in comparison to transfection efficiency of Lipofectin^R.

On to `Br.CCCCCCCCCCCCCCCC[n+]1cccc(C2C(C(=O)OC3CC(C)CCC3C(C)C)=C(C)NC(C)=C2C(=O)OC2CC(C)CCC2C(C)C)c1.[Br-]` (centres unmarked) [XVIII, 1-Hexadecyl-1′,4′-dihydro-3′,5′-bis(menthyloxycarbonyl)-2′,6′-dimethyl-3,4′-bipyridinium bromide], for which the transfection efficiency was 0,54 β-galactosidase units per well (amphiphile/DNA +/− charge ratio 0.5); 0,52 β-galactosidase units per well (amphiphile/DNA +/− charge ratio 1); 2,36 β-galactosidase units per well (amphiphile/DNA +/− charge ratio 2); 0,94 β-galactosidase units per well (amphiphile/DNA +/− charge ratio 4); 1,1 β-galactosidase units per well (amphiphile/DNA +/− charge ratio 8).
